The target of assay [1] is T1, FLAG-tagged mouse TRAF3 (mouse) (UniProt Q60803).
T1 sequence (looked up): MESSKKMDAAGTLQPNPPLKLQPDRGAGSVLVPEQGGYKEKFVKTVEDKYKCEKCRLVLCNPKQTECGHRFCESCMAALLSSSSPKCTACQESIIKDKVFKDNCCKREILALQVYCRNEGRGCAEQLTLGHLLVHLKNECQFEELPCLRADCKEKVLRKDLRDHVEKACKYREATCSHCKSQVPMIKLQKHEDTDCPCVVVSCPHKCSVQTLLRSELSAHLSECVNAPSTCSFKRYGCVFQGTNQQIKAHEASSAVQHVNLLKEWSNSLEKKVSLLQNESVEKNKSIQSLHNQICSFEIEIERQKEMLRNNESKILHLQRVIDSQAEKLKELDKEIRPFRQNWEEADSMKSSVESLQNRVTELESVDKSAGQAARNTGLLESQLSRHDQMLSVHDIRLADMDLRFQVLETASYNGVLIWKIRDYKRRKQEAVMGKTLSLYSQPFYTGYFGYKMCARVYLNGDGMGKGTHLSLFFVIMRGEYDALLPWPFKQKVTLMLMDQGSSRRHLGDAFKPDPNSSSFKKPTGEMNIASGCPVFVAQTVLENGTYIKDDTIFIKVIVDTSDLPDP
As to the kind of experiment: co-immunoprecipitation (legend of FIG. 2C).

Assay [2] deals with T1, FLAG-tagged mouse TRAF3 (mouse). As to the kind of experiment: co-immunoprecipitation (conclusion of the example).
The target is the same in assay [3]. The experiment in a line: co-immunoprecipitation from transfected 293 cells, anti-FLAG M2 and anti-MYC 9E10 (FIG. 2C).
In assay [4] the target is T2, hSos-TRAF3 (full-length TRAF3 fused to hSos) (human) (UniProt Q07889+Q60803). The experiment in a line: yeast cdc25H growth assay at 37 C (CytoTrap two-hybrid).
Assay [5] deals with T2, hSos-TRAF3 (full-length TRAF3 fused to hSos) (human). The experiment in a line: yeast cdc25H growth assay (CytoTrap two-hybrid).
For assay [6], the target named is T1, FLAG-tagged mouse TRAF3 (mouse). The experiment in a line: GST pull-down from 293 cell lysate, anti-FLAG immunoblot (FIG. 2A).
For assay [7] the target is unchanged. The experiment in a line: GST pull-down (conclusion of the example).
The target is the same in assay [8]. As to the kind of experiment: GST pull-down from 293 cell lysates with FLAG-tagged TRAF2, TRAF3, TRAF5, TRAF6 (FIG. 2B).

Results are given in words; binding and its absence hold for the method and conditions named. For some assays here: In cells and extracts the contact can be indirect. Some results given as binding are weak or reduced against the parent protein; the word gives no strength. Tags and fused reporters may be left off the sequences shown.

B1: MYC-tagged T3BP (full length T3BP containing C-terminal MYC epitope label) (receptor, not shown: small tags and cut ends)
chain: MGARRLRFRSQRSRDSSVPTQCNQTECFDPLVRNCVSCELFHTPDTGHTSSLEPGTALQPQEGSALRPDVALLVGAPALLGLILALTLVGLVSLVSWRWRQQLRTASPDTSEGVQQESLENVFVPSSETPHASAPTWPPLKEDADSALPRHSVPVPATELGSTELVTTKTAGPEQ
Turning to B1, the binding result in assay [1], in assay [2] and in assay [3] was “binds” throughout.

B2: clone 3 fused to myristylation signal (pMyr library plasmid) (protein)
chain: SLVSWRWRQQLRTASPDTSEGVQQESLENVFVPSSETPHASAPTWPPLKEDADSALPRHSVPVPATELGSTELVTTKTAGPEQ
modifications: myristylation signal sequence (membrane anchoring in yeast)
Turning to B2, the binding result in assay [4] and in assay [5] was “binds” each time.

B3: GST-clone 3 (protein, not shown: a dimerising Fc or GST)
chain: SLVSWRWRQQLRTASPDTSEGVQQESLENVFVPSSETPHASAPTWPPLKEDADSALPRHSVPVPATELGSTELVTTKTAGPEQ
On to B3, for which the binding result in assay [6], in assay [7] and in assay [8] was “binds” throughout.

For the origin of these results see US20040170997A1.
